Data as given in PubChem BioAssay AID1347076 (National Center for Advancing Translational Sciences (NCATS), 2019).
Where “and” joins values, the source holds several entries; their conditions need not be identical. Equal entries are not always repeated. The campaign covered roughly 400,000 compounds. About 13,000 (3.2%) were called active. This list was built around the results that the source calls inconclusive (neither active nor inactive); the mix of calls is not that of the screen. Calls follow the shape of the dose curve; as a rule, active = well fitted cell-killing curve with a large enough effect; inconclusive = small, poorly fitted or top-dose-only effect, or effect the other way; inactive = flat fitted curve, though single readings scatter. Potencies of inconclusive entries are doubtful fits and often do not repeat.

Assay: qHTS assay for MDR1-selective chemotherapeutics: Primary screen using the drug-selected MDR subline cells KB-V1; also: nearly all actives have a fitted effect of over 60% in size
Details: KB-V1 MDR cells viability, CellTiter-Glo, 72 h
Summary of the method: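 KB-V1 MDR subline cells in DMEM (phenol-red free, 10% FBS) exposed to compounds in qHTS concentration series for 72 h at 37 degrees C. Viability read by CellTiter-Glo luminescence; concentration-effect curves fitted after normalization and correction.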

[1] = activity change, negative = cytotoxicity: at 46.1 µM (top of the series)
% is scaled to controls: 0 for no effect and ±100 for the full control effect; potency is read from the fitted curve at half-maximal effect.

CCc1ccc(-c2cc(C)no2)cc1S(=O)(=O)N1CCC(C)CC1
Potency [1]: inconclusive: 0.0073 µM [cytotoxic, full curve, poor fit]

Cc1ccc(NC(=O)CSc2nc3ccccc3c(=O)n2CCCC(=O)N2CCCC2)cc1
Potency [1]: inconclusive: 3.98 µM [cytotoxic, partial curve]

Cc1[nH]c2ccc(C(=O)NCCCN3CCCCC3)cc2c1C
activity change, negative = cytotoxicity [1]: inconclusive: -31.4% [cytotoxic]
activity change, negative = cytotoxicity (at 46.1 µM (top of the series)): inactive: -3.29%

CN(C)C(=O)CN1C(=O)NC2(CCCc3ccccc32)C1=O (stereo unspecified)
activity change, negative = cytotoxicity [1]: inconclusive: -6.78%

Cc1ccsc1C(=O)Nc1ccc2c(c1)OCCO2
Potency [1]: active: 20.6 µM

COC(=O)c1ccc(NC(=O)CSC2=NCCN2)cc1
Potency [1]: inconclusive: 11.6 µM [cytotoxic, partial curve]

COc1ccccc1NC(=O)CCCC(=O)OC(C)C(=O)c1ccccc1 (stereo unspecified)
Potency [1]: inconclusive: 29.1 µM [cytotoxic, single point]

C/C(=N\NC(=S)NCc1ccccc1)c1ccc2ccccc2c1
Potency [1]: inconclusive: 20.6 µM [cytotoxic, single point]

O=C(/C=C/c1ccc([N+](=O)[O-])cc1)c1ccccc(=O)c1O
Potency [1]: active: 1.03 µM

COc1ccc(-c2noc(CNC(=O)c3cc(OC)c(OC)c(OC)c3)n2)cc1
Potency [1]: inactive

Cc1nc2c(c(C)c1CCC(=O)NCc1ccc(F)cc1)c(=O)n(C)c(=O)n2C
Potency [1]: inconclusive: 10.3 µM [rising, partial curve]

COC(=O)C1=C(C(=O)OC)[C@]2([C@H]3C/C=C\CN[C@@H](Cc4ccccc4)C(=O)N3Cc3ccccc3)C=C[C@H]1O2
Potency [1]: inconclusive: 20.6 µM [cytotoxic, partial curve]

C[C@H]1CN([C@@H](C)CO)C(=O)CCCn2cc(nn2)CO[C@@H]1CN(C)C(=O)Nc1ccc(-c2cccs2)cc1
Potency [1]: inconclusive: 29.1 µM [cytotoxic, single point]

CC(=O)NC(=O)COC(=O)c1ccc2ncsc2c1
Potency [1]: inconclusive: 23.1 µM [rising, partial curve]

O=C(CCl)N1N=C(c2ccco2)CC1c1cccs1 (stereo unspecified)
Potency [1]: active: 23.1 µM

Cc1cc(-c2nc(-c3ccc(C(C)(C)C)cc3)no2)no1
Potency [1]: inconclusive: 11.6 µM [cytotoxic, partial curve, poor fit]

O=C(C1CCCO1)N1CCN(S(=O)(=O)c2cc(F)ccc2F)CC1 (stereo unspecified)
Potency [1]: inactive

O=C(O)CCCNC(=O)CCCn1nnc2ccccc2c1=O
Potency [1]: inactive

COc1ccc(-c2nc(NC(=O)c3ccco3)sc2C)cc1
Potency [1]: inconclusive: 16.4 µM [cytotoxic, single point]

CC(C)(C)OC(=O)N1CCC[C@H]1C(=O)NCc1ccc(F)cc1F
Potency [1]: inconclusive: 25.9 µM [cytotoxic, single point]

COc1ccc(-c2cc(CCCC(=O)NCCc3cc(OC)ccc3OC)no2)cc1
Potency [1]: active: 4.61 µM

Cc1cccc(/N=C/c2c(O)ccc3oc4c(c23)CCCC4)n1
Potency [1]: inconclusive: 8.2 µM [cytotoxic, partial curve]

CCCN(CC(=O)Nc1ccccc1C)C(=O)c1nn(CC)c(=O)c2ccccc12
Potency [1]: active: 8.2 µM

CN(C)CCNC(=O)/C(=C/c1ccc(-c2ccc(Cl)cc2)o1)NC(=O)c1ccccc1
Potency [1]: inactive

CC(=O)N1CCC(N(Cc2ccc(C)o2)C(=O)Nc2ccccc2F)CC1
Potency [1]: inconclusive: 16.4 µM [rising, single point]

COC(=O)c1ccc(NC(=O)c2c(NCc3cccc(F)c3)sc3c2CCCC3)cc1
Potency [1]: inactive

NS(=O)(=O)c1ccc(N=Nc2c(=O)[nH]n3c(=O)c4c([nH]c23)CCCC4)cc1
Potency [1]: inconclusive: 16.4 µM [cytotoxic, single point]

COC(=O)C1=C(C)OC(N)=C(C#N)C1c1ccccc1F (stereo unspecified)
Potency [1]: inconclusive: 29.1 µM [cytotoxic, single point]

Cc1ccc(-c2csc(N=C(N)N)n2)c(C)c1
Potency [1]: inconclusive: 29.1 µM [cytotoxic, single point]

CC(C)c1nc(SCC(=O)Nc2cccc3ccccc23)n[nH]1
Potency [1]: inactive

Cc1cc2c(cc1S(=O)(=O)N(CCN(C)C)Cc1ccccc1)OCC(=O)N2
Potency [1]: inactive

CC(=O)Nc1ccc(NS(=O)(=O)c2ccc3c(c2)oc(=O)n3C)cc1
Potency [1]: inconclusive: 29.1 µM [rising, single point]

COc1ccnc(Oc2ccccc2)c1C#N
Potency [1]: inactive

CC1(C(=O)Nc2cccc(C(F)(F)F)c2)Cc2c(-c3cccc(C(N)=O)c3)ccnc2O1 (stereo unspecified)
Potency [1]: inactive

CCOC(=O)C(=O)C1=CN(Cc2ccccc2)C=C(C#N)C1
Potency [1]: inconclusive: 29.1 µM [rising, partial curve, poor fit]

C=C1C(=O)OCC2C(C(=O)O)=CC3C(C)C(C)=CC123 (stereo unspecified)
Potency [1]: inconclusive: 29.1 µM [cytotoxic, single point]

CCOC(=O)Cc1csc(NC(=O)Nc2ccc(Cl)cc2)n1
Potency [1]: inconclusive: 29.1 µM [cytotoxic, single point]

CC(NCC(=O)Nc1ccccc1C(=O)NC1CC1)c1cccc(C(F)(F)F)c1 (stereo unspecified)
Potency [1]: inactive

COc1ccc(CCNC(=O)COC(=O)c2cc(OC)c(OC)cc2OC)cc1OC
Potency [1]: inconclusive: 29.1 µM [cytotoxic, single point]

CN(C)c1nc(SCC(=O)Nc2ccccc2)nc(N2CCOCC2)n1
Potency [1]: inconclusive: 9.2 µM [cytotoxic, partial curve]

O=C(CCNC(=O)c1ccc([N+](=O)[O-])cc1)Nc1ccc(Cl)c(S(=O)(=O)N2CCOCC2)c1
Potency [1]: inconclusive: 0.0046 µM [rising, full curve, poor fit]

C=CCNC(=O)C1CCCN(S(=O)(=O)c2ccc(-n3cnnn3)cc2)C1 (stereo unspecified)
activity change, negative = cytotoxicity [1]: inconclusive: 15.7%

COc1ccc(C(=O)NCCn2cc(SCC(=O)Nc3ccc4c(c3)OCCO4)c3ccccc32)cc1
Potency [1]: inactive

Cc1[nH]c2ccccc2c1C1(O)C(=O)N(Cc2ccc3c(c2)OCO3)c2ccccc21 (stereo unspecified)
Potency [1]: inconclusive: 16.4 µM [cytotoxic, partial curve, poor fit]

Cc1cccc(C(=O)N[C@H](C(=O)OCC(=O)NC2CCS(=O)(=O)C2)C(C)C)c1 (stereo partly specified)
Potency [1]: inconclusive: 29.1 µM [rising, single point]

Cc1ccc(S(=O)(=O)N2CCN(C(=O)CN3CCCCC3)C2C(C)C)cc1 (stereo unspecified)
Potency [1]: inconclusive: 7.31 µM [cytotoxic, partial curve]

Cc1ccccc1-n1ccnc1SCC(=O)Nc1cccc(S(=O)(=O)NC2=NCCC2)c1
Potency [1]: inactive

CC(NS(=O)(=O)c1ccc2c(c1)oc(=O)n2C)c1ccccc1 (stereo unspecified)
Potency [1]: inactive

COCc1ccc(C(=O)N2CCc3c([nH]c4ccccc34)C2c2ccccn2)s1 (stereo unspecified)
Potency [1]: active: 18.4 µM

CC(C)CN1CCC(=O)N([C@H](CSc2ccccc2)Cc2ccccc2)CC1
Potency [1]: active: 13 µM and inconclusive: 20.6 µM [cytotoxic, partial curve, poor fit]

N#C/C(=C/c1cc(Br)cs1)C(=O)NCC1CCCO1 (stereo unspecified)
Potency [1]: inconclusive: 29.1 µM [rising, partial curve, poor fit]

O=C(NCCSc1ccccc1)c1ccc(Br)cc1
Potency [1]: inactive

COc1cc(CC(=O)OCC(=O)c2ccc3c(c2)OCCO3)cc(OC)c1OC
Potency [1]: active: 0.731 µM

CCn1cc([N+](=O)[O-])c(C(=O)N2N=C(c3ccc(Cl)c(Cl)c3)CC2c2ccccc2O)n1 (stereo unspecified)
Potency [1]: inconclusive: 32.6 µM [cytotoxic, single point]

N#Cc1ccc(C(=O)Nc2cc(S(=O)(=O)N3CCCC3)ccc2OCC(F)(F)F)cc1
Potency [1]: inconclusive: 23.1 µM [cytotoxic, partial curve]

COc1ccc(OC)c(CN(CCN2CCOCC2)S(=O)(=O)c2ccc(NC(C)=O)cc2)c1
Potency [1]: inconclusive: 29.1 µM [cytotoxic, single point]

Cc1csc2nc(CNS(=O)(=O)c3ccc(-c4ccccc4)cc3)cn12
Potency [1]: inconclusive: 29.1 µM [cytotoxic, single point]

C=CCn1c(-c2cccn(Cc3ccc(Cl)cc3Cl)c2=O)n[nH]c1=S
Potency [1]: active: 14.6 µM

CSc1ccc(C(=O)N2CCC(CCC(=O)NC3CC3)CC2)cc1
Potency [1]: inconclusive: 29.1 µM [rising, single point]

CCCCN(C)CCNC(=O)c1nn(-c2ccc(OC)c(Cl)c2)c(=O)c2c1c1ccccc1n2C
Potency [1]: inactive

OC(CNCC1CCCO1)Cn1c2ccc(Br)cc2c2cc(Br)ccc21 (stereo unspecified)
Potency [1]: active: 23.1 µM

Cn1nc(C(=O)NNC(=O)COc2ccccc2)c2ccccc2c1=O
Potency [1]: inactive

CCCCOCCCNC(=O)C[C@@H]1C[C@@]2(C(=O)OCC)CCC=C2N(CCC2=CCCCC2)C1=O
Potency [1]: inconclusive: 9.2 µM [cytotoxic, partial curve]

O=C(Cc1ccccc1)Nc1ccccc1N1CCCC1
Potency [1]: inconclusive: 29.1 µM [rising, single point]

CC(Oc1ccc(Br)cc1)C(=O)NCC(c1ccco1)N1CCCCC1 (stereo unspecified)
Potency [1]: active: 14.6 µM

O=C(NC1c2ccccc2-c2ccccc21)N1CCOCC1
Potency [1]: inconclusive: 16.4 µM [cytotoxic, single point]

Cc1ccc(S(=O)(=O)c2cccc(S(=O)(=O)N3CCCC3)c2)cc1S(=O)(=O)N1CCCC1
Potency [1]: active: 2.59 µM

CCCCSCCCNC(=O)c1ccc(CS(=O)(=O)c2ccc(OC)cc2)o1
Potency [1]: inconclusive: 9.2 µM [cytotoxic, single point]

Brc1ccccc1OCCOc1cccc2cccnc12
Potency [1]: inconclusive: 29.1 µM [cytotoxic, single point]

Cc1ccc(-c2nnc(-n3ncc(C#N)c3N)c3ccccc23)cc1C
Potency [1]: inconclusive: 3.26 µM [cytotoxic, partial curve, poor fit]
